The record followed here is publication PMC11598967.

Sequences of proteins named here, by UniProt entry; tags and fusion partners are left off.
UniProt P49951: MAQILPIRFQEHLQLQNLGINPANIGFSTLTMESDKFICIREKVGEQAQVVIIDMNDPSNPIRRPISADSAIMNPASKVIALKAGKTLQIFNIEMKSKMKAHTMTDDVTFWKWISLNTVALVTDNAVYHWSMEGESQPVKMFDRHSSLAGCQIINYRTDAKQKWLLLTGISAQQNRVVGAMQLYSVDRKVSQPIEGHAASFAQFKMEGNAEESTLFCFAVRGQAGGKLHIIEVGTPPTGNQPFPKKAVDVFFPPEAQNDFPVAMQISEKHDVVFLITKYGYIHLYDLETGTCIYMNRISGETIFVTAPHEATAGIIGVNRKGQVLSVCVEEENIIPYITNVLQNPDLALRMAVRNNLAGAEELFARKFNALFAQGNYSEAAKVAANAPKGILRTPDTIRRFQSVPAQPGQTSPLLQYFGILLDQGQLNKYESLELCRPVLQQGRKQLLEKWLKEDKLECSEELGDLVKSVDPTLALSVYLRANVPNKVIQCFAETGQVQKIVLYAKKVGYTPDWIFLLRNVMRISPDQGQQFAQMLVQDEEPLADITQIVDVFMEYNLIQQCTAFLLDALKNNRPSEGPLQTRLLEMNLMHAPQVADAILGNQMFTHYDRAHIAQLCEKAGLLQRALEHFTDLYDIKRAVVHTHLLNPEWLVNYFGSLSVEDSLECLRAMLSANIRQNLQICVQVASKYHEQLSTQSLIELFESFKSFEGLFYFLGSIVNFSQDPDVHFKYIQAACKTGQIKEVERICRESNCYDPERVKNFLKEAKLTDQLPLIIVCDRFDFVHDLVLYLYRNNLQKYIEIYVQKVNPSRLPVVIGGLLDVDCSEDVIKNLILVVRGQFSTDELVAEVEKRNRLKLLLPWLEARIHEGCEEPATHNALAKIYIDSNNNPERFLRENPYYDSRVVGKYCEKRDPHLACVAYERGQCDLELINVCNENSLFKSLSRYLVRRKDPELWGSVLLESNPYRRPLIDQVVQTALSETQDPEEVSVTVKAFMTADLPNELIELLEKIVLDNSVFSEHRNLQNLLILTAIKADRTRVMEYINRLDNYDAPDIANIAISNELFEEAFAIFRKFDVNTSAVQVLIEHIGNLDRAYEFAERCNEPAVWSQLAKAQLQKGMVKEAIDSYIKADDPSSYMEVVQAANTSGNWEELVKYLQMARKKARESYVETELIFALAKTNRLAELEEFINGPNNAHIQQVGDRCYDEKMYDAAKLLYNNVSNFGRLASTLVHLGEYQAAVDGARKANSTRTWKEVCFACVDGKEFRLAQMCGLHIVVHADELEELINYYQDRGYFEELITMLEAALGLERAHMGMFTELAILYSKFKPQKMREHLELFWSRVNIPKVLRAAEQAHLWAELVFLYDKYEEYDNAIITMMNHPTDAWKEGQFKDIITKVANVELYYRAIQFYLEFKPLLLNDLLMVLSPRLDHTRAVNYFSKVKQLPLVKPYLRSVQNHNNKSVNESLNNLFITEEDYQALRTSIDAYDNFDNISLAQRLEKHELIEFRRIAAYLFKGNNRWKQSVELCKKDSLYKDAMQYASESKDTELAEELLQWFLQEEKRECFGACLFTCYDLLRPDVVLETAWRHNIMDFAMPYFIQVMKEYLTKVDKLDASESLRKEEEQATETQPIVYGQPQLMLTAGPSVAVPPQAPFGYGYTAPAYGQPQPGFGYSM

These are yes or no findings as the source states them, for the method shown. Binding seen in cells or lysates may run through a third protein. Some results given as binding are weak or reduced against the parent protein; the word gives no strength.

In the experiment the target is Clathrin heavy chain protein (CHC) (bovine (endogenous in MDBK)) (UniProt P49951). Description: co-IP; endogenous proteins in MDBK cell lysate (RIPA buffer); 1 ug primary antibody (anti-HSPA4, anti-CHC or IgG) in 400 uL lysate overnight at 4 C, protein A+G agarose 3 h at 4 C, five PBS washes, Western blot. For orientation: In western blotting, separated proteins are transferred to a membrane and probed.

“Heat shock cognate protein 70 (HSC70) (from UniProt P19120 1-650)”: the binding result is given as “binds”.
